The values that follow come from article PMC7675186.

These are yes or no findings as the source states them, for the method shown. Binding seen in cells or lysates may run through a third protein. Some entries that bind do so weakly or less than the wild type.

The experiment has as its target PPARγ-S273A (UniProt P37238). The experiment in a line: co-IP; whole-cell extracts of transgenic 4T1 cells, antibodies overnight, protein A/G beads 2 h, five washes with low-salt lysis buffer, immunoblot; forward and reverse.

B1: epithelial splicing regulatory protein 1 (ESRP1) (protein, UniProt Q3US41 1-680)
chain: MTASPDYLVVLFGITAGATGAKLGSDEKELILLLWKVVDLANKKVGQLHEVLVRPDQLELTEDCKEETKIDAENLSSAPQLDQALRQFNQSVSNELNIGVGTSFCLCTDGQLHIRQILHPEASKKNVLLPECFYSFFDLRKEFKKCCPGSPDIDKLDVAAMTESLNFEKSDSVSRYGASQVEDMGNIILAMISEPYNHRFSDPERVNYKFESGTCKMELIDDSTVVRARGLPWQSSDQDIARFFKGLNIAKGGAALCLNAQGRRNGEALVRFVSEEHRDLALQRHKHHMGTRYIEVYKATGEDFLKIAGGTSNEVAQFLSKENQVIVRMRGLPFTATAEEVVAFFGQHCPITGGKEGILFVTYPDGRPTGDAFVLFACEEYAQNALRKHKELLGKRYIELFRSTAAEVQQVLNRFSSAPLIPLPTPPIIPVLPQQFVPPTNVRDCIRLRGLPYAATIEDILDFLGEFSTDIRTHGVHMVLNHQGRPSGDAFIQMKSTDRAFMAAQKYHKKTMKDRYVEVFQCSAEEMNFVLMGGTLNRNGLSPPPCKLPCLSPPSYTFPAPTAVIPTEAAIYQPSLLLNPRALQPSTAYYPAGTQLFMNYTAYYPSPPGSPNSLGYFPTAANLSSVPPQPGTVVRMQGLAYNTGVKEILNFFQGYQYATEDGLVHTNDQARTLPKEWVCI
With B1, the binding result is “binds”.
